## Primary screen of a compound library

Chains of the proteins cited; added tags and fusions are not shown.
UniProt E9BF75, entry or part of it: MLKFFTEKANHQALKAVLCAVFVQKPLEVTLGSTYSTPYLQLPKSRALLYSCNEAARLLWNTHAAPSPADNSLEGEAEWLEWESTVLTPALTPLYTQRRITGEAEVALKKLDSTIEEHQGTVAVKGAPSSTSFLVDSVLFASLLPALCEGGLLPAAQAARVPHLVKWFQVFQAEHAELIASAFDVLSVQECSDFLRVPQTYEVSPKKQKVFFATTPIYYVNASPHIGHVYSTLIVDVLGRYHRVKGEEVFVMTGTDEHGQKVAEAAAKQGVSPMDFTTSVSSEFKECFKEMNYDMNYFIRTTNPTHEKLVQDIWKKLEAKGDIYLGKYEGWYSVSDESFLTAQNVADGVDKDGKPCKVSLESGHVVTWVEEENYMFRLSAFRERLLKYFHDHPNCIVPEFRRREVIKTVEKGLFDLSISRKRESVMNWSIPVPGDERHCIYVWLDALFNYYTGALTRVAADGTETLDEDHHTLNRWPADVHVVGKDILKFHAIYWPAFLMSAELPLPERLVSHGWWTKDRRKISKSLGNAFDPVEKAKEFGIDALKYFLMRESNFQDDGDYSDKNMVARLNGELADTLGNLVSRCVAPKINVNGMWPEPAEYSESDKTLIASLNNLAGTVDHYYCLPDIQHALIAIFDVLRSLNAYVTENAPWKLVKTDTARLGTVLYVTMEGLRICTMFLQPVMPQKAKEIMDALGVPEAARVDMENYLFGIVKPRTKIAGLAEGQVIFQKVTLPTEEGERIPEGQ

Results are percentages, as filed.
How 0% and 100% were set is not recorded. Most values in the screen are low, and negative values occur.
Compounds were drawn at random from those tested, without regard to their results.

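Primary screen of methionyl-tRNA synthetase; the read-out is not stated. Target: Methionyl-tRNA synthetase (putative), Leishmania donovani (UniProt E9BF75). The test concentration is not given. Values are per cent inhibition. Of about 68,000 compounds tested this way, about 24 (0.035%) reached 50% or more in at least one test.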

COc1cccc(S(=O)(=O)N2CCCCC2CCN2CCOCC2)c1 (stereo not shown) gave 3.794%. COc1cc(C)sc1C(=O)NCCC(=O)N(C)c1ccccc1 read 20.38%. CN(C)C[C@@H]1C[C@@H]2CN(Cc3nccn3C)CC[C@@H]2N1CC1CC1 gave 7.038%. Fc1cccc(-c2nc(CN3CCn4c(nnc4C4CC4)C3)co2)c1 read 11.19%. With Cc1ccc(N2CCN(C(=O)C3CN(C)C(=O)N3)CC2=O)cc1 (stereo not shown) the screen gave 9.91%. For COC(=O)NC1(C(=O)Nc2ccc(-c3ncc[nH]3)cc2)CCCC1 the result was 11.8%.

COCCc1noc(CN(C)C(=O)c2cccc(N3CCCC3=O)c2)n1 read 1.408%. CCc1noc(CS(=O)(=O)Cc2ccccc2Cl)n1 gave 13.04%. CCC(C(=O)NCCc1coc(-c2ccc(C)cc2)n1)N(C)C (stereo not shown) gave 5.307%. CC(OCC1CC1)C(=O)NCCC(=O)Nc1ccccn1 (stereo not shown) gave 20.05%. With NC(=O)c1cccc(CC2CCN(C(=O)CO)C2)c1 (stereo not shown) the screen gave 11.33%. For CC(C)N1CCO[C@@H]2CN(C(=O)NCc3ccccc3)CC[C@@H]2C1 the result was -6.718%.

Result for COC1CCN(C(=O)CC(C)(C)C)CC(=O)N(C)c2ccccc21 (stereo not shown) was 12.33%. Result for Cc1ccc(C(=O)N2CC(=O)N(Cc3ccco3)CC(O)C2)cc1 (stereo not shown) was 11.23%. With CCO[C@@H]1CC[C@H]2[C@H]1OCCN2C(=O)C1CCOCC1 the screen gave 11.43%. For CCN1CCCN(c2ncccc2C(=O)N2CCCCC2)CC1 the result was 7.801%. For CCOc1ccc(C(=O)n2cccn2)cc1 the result was 11.27%. Result for c1cnc(-c2noc(C3CN(Cc4ccsc4)C3)n2)cn1 was 12.95%.

O=C(NCC(O)c1cccc(F)c1)C1CCN(C(=O)C2CCC2)CC1 (stereo not shown) gave 17.82%. Result for CCOCCN1CCN(Cc2cccc(C(=O)N(C)C)c2)CC1C (stereo not shown) was 15.9%. With O=C(OCc1ccccc1)C1CCCN1Cc1nc(C2CC2)no1 (stereo not shown) the screen gave 6.183%. O=C(C1CCOCC1)N1C[C@@H](F)[C@@H](OCc2nc3cc(F)ccc3[nH]2)C1 gave 7.119%. Result for Cc1cccc(C(=O)N2CCSCC2)c1NC(=O)c1ccsc1 was 11.34%. Fc1cccc(CNc2cncc(-n3cccn3)n2)c1 gave 10.65%.

Result for Cc1ocnc1C(=O)N1CCCN(Cc2cscn2)CC1 was 6.077%. Cc1cc(NC(=O)CN2CCN(c3nccs3)C(C)C2)on1 (stereo not shown) gave 10%. Result for CCC(=O)N1CCN(C(=O)NCc2c(C)cc(C)cc2C)CC1 was 21.31%. O=S(=O)(NCCc1cn2ccccc2n1)N1CCOCC1 gave 13.73%. Cc1ncccc1C(=O)N1CCC2(CCc3ccccc3C(=O)N2)C1 (stereo not shown) gave 9.969%. Result for CCn1c(CN2CCOC(Cn3cncn3)C2)nc2c(F)cccc21 (stereo not shown) was 0.7246%.

Result for O=C(Nc1nccs1)C1CCN(Cc2cccc3c2OCCO3)CC1 was 15.32%. Result for CCn1cc(NC(=O)NCCc2ccc3c(c2)OCCO3)cn1 was 21.31%.

Some entries from above, unchanged:

| compound | Inhibition |
|---|---|
| `O=C(Nc1nccs1)C1CCN(Cc2cccc3c2OCCO3)CC1` | 15.32% |
| `COCCc1noc(CN(C)C(=O)c2cccc(N3CCCC3=O)c2)n1` | 1.408% |
| `CCOc1ccc(C(=O)n2cccn2)cc1` | 11.27% |

Source: ChEMBL document CHEMBL3988442, “University of Dundee, Small-Polar-MMV Screening Library” (2021).